Results on 2 molecules are retold here after article PMC4381053.

Amino acid sequences for entries named in this document (tags omitted). A change or cut given only in a name is not applied to a line headed by its entry. Chains listed by the source or under a name are the forms on record and can include a tag or linker.
UniProt P32639: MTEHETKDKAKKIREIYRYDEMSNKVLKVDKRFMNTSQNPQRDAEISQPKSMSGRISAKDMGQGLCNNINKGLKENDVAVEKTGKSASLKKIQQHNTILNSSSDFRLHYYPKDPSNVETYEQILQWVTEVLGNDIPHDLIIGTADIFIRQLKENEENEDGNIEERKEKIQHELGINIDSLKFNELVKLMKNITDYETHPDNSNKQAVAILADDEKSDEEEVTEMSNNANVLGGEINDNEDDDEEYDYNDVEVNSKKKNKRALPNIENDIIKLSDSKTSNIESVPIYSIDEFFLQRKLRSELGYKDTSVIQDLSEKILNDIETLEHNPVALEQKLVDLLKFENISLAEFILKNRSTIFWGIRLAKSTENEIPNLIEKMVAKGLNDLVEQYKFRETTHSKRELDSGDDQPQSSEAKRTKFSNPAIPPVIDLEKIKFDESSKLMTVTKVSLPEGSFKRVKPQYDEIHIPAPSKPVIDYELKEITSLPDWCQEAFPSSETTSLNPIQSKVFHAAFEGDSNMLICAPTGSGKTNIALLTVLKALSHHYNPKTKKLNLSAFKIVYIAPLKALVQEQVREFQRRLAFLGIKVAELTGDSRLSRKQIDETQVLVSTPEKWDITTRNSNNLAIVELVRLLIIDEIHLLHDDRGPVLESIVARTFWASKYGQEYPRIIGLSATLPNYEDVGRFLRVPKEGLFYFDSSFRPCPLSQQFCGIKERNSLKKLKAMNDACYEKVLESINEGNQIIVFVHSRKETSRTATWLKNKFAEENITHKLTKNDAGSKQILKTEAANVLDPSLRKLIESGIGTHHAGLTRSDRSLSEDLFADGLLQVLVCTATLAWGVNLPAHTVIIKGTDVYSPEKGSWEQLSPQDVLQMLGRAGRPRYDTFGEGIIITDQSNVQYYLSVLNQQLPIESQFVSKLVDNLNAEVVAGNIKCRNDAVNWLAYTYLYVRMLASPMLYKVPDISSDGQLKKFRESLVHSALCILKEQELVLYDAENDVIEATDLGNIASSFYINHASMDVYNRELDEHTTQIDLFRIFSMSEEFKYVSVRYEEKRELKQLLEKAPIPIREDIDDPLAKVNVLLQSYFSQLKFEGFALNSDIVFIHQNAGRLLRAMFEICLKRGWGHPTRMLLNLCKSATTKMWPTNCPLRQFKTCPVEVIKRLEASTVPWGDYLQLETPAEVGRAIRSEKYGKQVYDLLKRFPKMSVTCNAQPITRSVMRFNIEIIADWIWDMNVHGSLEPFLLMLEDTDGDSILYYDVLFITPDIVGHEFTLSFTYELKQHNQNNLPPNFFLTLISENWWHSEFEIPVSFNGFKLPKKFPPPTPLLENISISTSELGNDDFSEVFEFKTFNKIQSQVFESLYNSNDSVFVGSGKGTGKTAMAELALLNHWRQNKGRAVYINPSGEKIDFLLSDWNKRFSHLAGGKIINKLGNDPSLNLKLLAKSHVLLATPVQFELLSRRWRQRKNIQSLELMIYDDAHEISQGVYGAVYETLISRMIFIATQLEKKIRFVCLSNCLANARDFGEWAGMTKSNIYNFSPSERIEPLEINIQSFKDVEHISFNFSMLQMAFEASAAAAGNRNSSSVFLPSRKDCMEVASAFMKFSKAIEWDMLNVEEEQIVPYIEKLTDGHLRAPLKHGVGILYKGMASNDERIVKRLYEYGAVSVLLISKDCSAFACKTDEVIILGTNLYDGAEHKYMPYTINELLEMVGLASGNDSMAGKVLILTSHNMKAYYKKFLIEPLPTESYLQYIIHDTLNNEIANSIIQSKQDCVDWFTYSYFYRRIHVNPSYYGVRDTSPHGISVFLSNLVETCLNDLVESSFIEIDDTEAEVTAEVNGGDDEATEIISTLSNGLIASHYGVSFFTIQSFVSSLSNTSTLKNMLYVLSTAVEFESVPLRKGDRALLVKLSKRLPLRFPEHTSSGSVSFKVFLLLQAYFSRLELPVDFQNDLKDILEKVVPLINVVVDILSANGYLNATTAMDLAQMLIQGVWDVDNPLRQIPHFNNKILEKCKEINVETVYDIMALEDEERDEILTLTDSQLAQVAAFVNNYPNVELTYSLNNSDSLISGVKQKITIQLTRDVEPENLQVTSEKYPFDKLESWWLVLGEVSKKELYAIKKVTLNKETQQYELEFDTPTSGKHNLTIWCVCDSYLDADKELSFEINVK
TAP-tagged Brr2-Δ120 (P32639, form named): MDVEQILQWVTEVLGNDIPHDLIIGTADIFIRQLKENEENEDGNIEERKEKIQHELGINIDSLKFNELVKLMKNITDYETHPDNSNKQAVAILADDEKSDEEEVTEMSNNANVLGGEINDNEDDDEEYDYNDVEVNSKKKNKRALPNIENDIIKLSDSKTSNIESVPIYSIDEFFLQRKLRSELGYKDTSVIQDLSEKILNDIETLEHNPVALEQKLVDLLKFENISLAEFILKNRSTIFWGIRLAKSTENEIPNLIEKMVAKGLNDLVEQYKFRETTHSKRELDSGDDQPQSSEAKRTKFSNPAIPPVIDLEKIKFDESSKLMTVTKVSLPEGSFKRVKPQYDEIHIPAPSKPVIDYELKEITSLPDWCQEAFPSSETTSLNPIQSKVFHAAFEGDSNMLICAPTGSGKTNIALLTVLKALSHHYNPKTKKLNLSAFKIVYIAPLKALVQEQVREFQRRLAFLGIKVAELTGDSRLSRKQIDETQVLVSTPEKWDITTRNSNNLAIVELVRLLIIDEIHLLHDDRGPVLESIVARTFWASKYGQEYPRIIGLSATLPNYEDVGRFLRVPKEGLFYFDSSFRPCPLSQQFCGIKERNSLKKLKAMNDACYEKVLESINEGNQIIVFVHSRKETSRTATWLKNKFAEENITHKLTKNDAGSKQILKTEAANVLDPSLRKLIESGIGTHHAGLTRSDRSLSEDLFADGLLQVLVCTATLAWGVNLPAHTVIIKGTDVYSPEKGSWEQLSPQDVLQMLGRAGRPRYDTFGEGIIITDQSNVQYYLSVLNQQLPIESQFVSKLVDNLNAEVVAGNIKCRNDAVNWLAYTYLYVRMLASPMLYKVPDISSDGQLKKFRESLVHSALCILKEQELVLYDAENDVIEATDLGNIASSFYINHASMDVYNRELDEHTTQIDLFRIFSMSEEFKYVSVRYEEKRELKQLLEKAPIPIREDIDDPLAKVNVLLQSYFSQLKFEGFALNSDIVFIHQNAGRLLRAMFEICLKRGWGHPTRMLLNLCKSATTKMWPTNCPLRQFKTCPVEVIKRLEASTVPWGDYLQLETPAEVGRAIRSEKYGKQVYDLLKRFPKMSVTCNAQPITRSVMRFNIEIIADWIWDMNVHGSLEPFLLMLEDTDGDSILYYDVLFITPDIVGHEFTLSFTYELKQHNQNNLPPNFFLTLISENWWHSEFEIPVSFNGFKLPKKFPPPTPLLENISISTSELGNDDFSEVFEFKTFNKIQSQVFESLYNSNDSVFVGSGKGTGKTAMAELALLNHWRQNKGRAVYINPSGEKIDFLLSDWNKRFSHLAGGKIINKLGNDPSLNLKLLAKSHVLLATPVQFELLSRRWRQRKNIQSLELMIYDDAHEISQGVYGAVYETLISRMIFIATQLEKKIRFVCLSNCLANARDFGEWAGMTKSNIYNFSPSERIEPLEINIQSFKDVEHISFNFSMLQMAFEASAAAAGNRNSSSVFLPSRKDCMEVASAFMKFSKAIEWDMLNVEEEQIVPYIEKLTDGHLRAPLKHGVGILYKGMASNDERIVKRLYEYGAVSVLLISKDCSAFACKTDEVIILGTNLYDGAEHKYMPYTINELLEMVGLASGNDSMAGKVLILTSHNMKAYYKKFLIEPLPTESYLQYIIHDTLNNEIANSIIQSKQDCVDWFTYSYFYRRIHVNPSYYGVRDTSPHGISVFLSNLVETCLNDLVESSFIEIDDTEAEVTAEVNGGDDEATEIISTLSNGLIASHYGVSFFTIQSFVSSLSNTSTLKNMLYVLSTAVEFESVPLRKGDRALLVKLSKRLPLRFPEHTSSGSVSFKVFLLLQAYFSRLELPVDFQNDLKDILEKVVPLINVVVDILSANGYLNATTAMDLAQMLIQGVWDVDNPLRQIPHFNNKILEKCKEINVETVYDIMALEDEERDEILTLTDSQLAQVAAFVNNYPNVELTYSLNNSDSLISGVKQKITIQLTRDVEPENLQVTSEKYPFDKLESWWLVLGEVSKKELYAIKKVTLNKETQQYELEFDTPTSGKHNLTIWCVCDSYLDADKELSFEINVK

Results are given in words; binding and its absence hold for the method and conditions named. In cells and extracts the contact can be indirect. These calls come from enrichment with a bait or labelling near it, and not all partners need be listed.

Experiment [1] addresses TAP-tagged Brr2 WT (S. cerevisiae) (UniProt P32639). Nature of the experiment: affinity purification with mass spectrometry; TAP-tagged Brr2 pulled down from yeast extract on IgG resin in YEB (40 mM HEPES pH7.9, 200 mM NaCl, 1.5 mM MgCl2, 0.01% NP40), 4°C, eluted by TEV cleavage, LC-MS/MS; two independent pull down experiments.
In experiment [2] the target is TAP-tagged Brr2-Δ120 (S. cerevisiae) (UniProt P32639). The description is as above.

B1: SMD1 (protein, UniProt Q02260 1-146)
chain: MKLVNFLKKLRNEQVTIELKNGTTVWGTLQSVSPQMNAILTDVKLTLPQPRLNKLNSNGIAMASLYLTGGQQPTASDNIASLQYINIRGNTIRQIILPDSLNLDSLLVDQKQLNSLRRSGQIANDPSKKRRRDFGAPANKRPRRGL
B1: the binding result in experiment [1] and in experiment [2] was “binds” throughout.

B2: PRP9 (protein, UniProt P19736 1-530)
chain: MNLLETRRSLLEEMEIIENAIAERIQRNPELYYHYIQESSKVFPDTKLPRSSLIAENKIYKFKKVKRKRKQIILQQHEINIFLRDYQEKQQTFNKINRPEETQEDDKDLPNFERKLQQLEKELKNEDENFELDINSKKDKYALFSSSSDPSRRTNILSDRARDLDLNEIFTRDEQYGEYMELEQFHSLWLNVIKRGDCSLLQFLDILELFLDDEKYLLTPPMDRKNDRYMAFLLKLSKYVETFFFKSYALLDAAAVENLIKSDFEHSYCRGSLRSEAKGIYCPFCSRWFKTSSVFESHLVGKIHKKNESKRRNFVYSEYKLHRYLKYLNDEFSRTRSFVERKLAFTANERMAEMDILTQKYEAPAYDSTEKEGAEQVDGEQRDGQLQEEHLSGKSFDMPLGPDGLPMPYWLYKLHGLDREYRCEICSNKVYNGRRTFERHFNEERHIYHLRCLGIEPSSVFKGITKIKEAQELWKNMQGQSQLTSIAAVPPKPNPSQLKVPTELELEEEDEEGNVMSKKVYDELKKQGLV
B2: the binding result in experiment [1] and in experiment [2] was “binds” in each case.
